Taken from: PubChem BioAssay AID504804 (Drosophila RNAi Screening Center, 2011)

Assay: 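Fly genes whose loss lessens doxorubicin-driven cell death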 (primary screen)
System: Drosophila Kc cells
Reagents: long dsRNA against Drosophila genes, 0.5 µg dsRNA per well
Time to read-out: 96 h (48 h knock-down, then 48 h drug)
Conditions: doxorubicin 5 µg/ml for 48 h, added 48 h after dsRNA
Read-out: 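Luminescent ATP counts per replicate, not normalised, reflecting viable cells after 48 h dsRNA knock-down followed by 48 h of 5 µg/ml doxorubicin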
Scale: raw ATP luminescence: higher = more viable cells, protection from doxorubicin
Call rule: 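Active when both duplicate wells lie at least 2 SD above the plate mean and protection is confirmed by rescreening and independent dsRNAs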
The deposit covers about 19,000 reagents; shown is a random part of those that have a named target and a result. Of all reagents, 47 (0.25%) were called active. 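Signals are raw, not normalised; exact z-scores behind calls not deposited; actives needed confirmation, so some wells reaching 2 SD are inactive.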 Unmarked entries are inactive. Names joined by + are all predicted targets of the reagent. No sequences are given here.

gene | DRSC id | raw ATP luminescence, replicate 1 | raw ATP luminescence, replicate 2
RecQ5 | DRSC11266 | 19393 | 21933
PDCD-5 | DRSC09955 | 64123 | 53790
mod(mdg4) + pre-mod(mdg4)-U | DRSC13476 | 2.07e5 | 2.20e5
CG14086 | DRSC10090 | 74387 | 70293
bowl | DRSC00805 | 1.03e5 | 63820
agt | DRSC12611 | 63197 | 63783
CG3701 (retired record) | DRSC04408 | 39603 | 65900
CG3701 (retired record) | DRSC04409 | 36030 | 59847
ZnT35C | DRSC01959 | 61540 | 73160
Marf1 | DRSC03747 | 45560 | 38870
Marf1 | DRSC03774 | 64237 | 61267
Vps28 | DRSC06168 | 62017 | 44737
bip1 | DRSC11327 | 40813 | 31653
CG33937 (retired record) | DRSC15148 | 63390 | 59887
Spn85F | DRSC14545 | 1.79e5 | 1.72e5
E(var)3-9 | DRSC14451 | 63683 | 62107
CG42537 | DRSC12519 | 48010 | 54120
Prp31 | DRSC10735 | 30297 | 28557
CG17475 | DRSC15238 | 70720 | 75500
CG6908 | DRSC16131 | 63557 | 56013
shrb | DRSC07061 | 30330 | 33423
CG6652 | DRSC10686 | 26077 | 23920
CG13069 | DRSC09952 | 54657 | 48860
Mtl | DRSC16751 | 37430 | 13130
CG4766 | DRSC17736 | 30260 | 37160
CG12746 | DRSC12218 | 54353 | 27057
CG12929 | DRSC06242 | 49453 | 85627
twf | DRSC15466 | 52997 | 34510
Usp20-33 | DRSC07196 | 50337 | 44103
lin-28 | DRSC10261 | 53430 | 72770
CG5721 | DRSC06945 | 51560 | 61897
Or74a | DRSC11245 | 35483 | 32350
kirre | DRSC18785 | 57220 | 53800
MstProx | DRSC12458 | 70163 | 47823
MstProx | DRSC12601 | 68387 | 48113
CG5653 | DRSC10534 | 71527 | 71037
Tbcd | DRSC00273 | 1.00e5 | 63940
Tsp74F | DRSC10508 | 57197 | 42647
JMJD7 | DRSC09703 | 2.47e5 | 2.16e5
pyd3 | DRSC15459 | 39983 | 44713
crn | DRSC18184 | 42610 | 34950
crn | DRSC18185 | 41000 | 34590
RhoGEF64C | DRSC08318 | 28487 | 32960
RhoGEF64C | DRSC08319 | 81813 | 91527
CG8668 | DRSC03101 | 1.30e5 | 48960
Drep4 | DRSC03408 | 42980 | 79220
CG9389 | DRSC11857 | 16920 | 16867
CG14881 | DRSC15005 | 59890 | 63820
Fign | DRSC00592 | 1.17e5 | 73097
Nse1 | DRSC02147 | 1.05e5 | 90427
Takl1 | DRSC13443 | 1.22e5 | 1.40e5
Mhcl | DRSC13130 | 2.16e5 | 2.27e5
Mhcl | DRSC14216 | 57910 | 76250
Mhcl | DRSC16753 | 84560 | 81640
E23 | DRSC00425 | 14957 | 10980
E23 | DRSC00593 | 36170 | 34040
Ir68a | DRSC10599 | 75480 | 70463
Grl62c | DRSC07964 | 1.73e5 | 1.09e5
Sb | DRSC16851 | 82150 | 65920
CG14075 | DRSC10080 | 58570 | 56523
CG9072 | DRSC20147 | 3.01e5 | 3.17e5
Gyc88E | DRSC15547 | 1.02e5 | 70110
CG42340 | DRSC17458 | 1.70e5 | 2.28e5
CG42340 | DRSC17841 | 29010 | 40110
CG42340 | DRSC18305 | 32000 | 35490
Smyd3 | DRSC17744 | 63720 | 45770
fln | DRSC11346 | 28853 | 26150
CG11658 | DRSC09852 | 83137 | 1.13e5
SdhB | DRSC05018 | 63173 | 51660
CG17147 | DRSC10249 | 56543 | 55120
Rhau | DRSC03200 | 88283 | 60697
schuy | DRSC10284 | 71877 | 61417
CG14089 | DRSC10093 | 60390 | 54497
CG1161 | DRSC12180 | 36073 | 38520
Pmvk | DRSC02032 | 66190 | 53780
CG15414 | DRSC00429 | 22380 | 23793
l(3)neo43 | DRSC14988 | 85720 | 70950
ppk26 | DRSC10991 | 75387 | 88637
rho-6 | DRSC02588 | 72813 | 78517
CG7985 | DRSC14128 | 40747 | 37363
NK7.1 | DRSC16755 | 48810 | 26540
CG6462 | DRSC10641 | 70357 | 82713
CG13130 (retired record) | DRSC02226 | 57957 | 64877
CG7488 | DRSC16250 | 95800 | 69390
CG17104 | DRSC02573 | 98877 | 92580
CG31556 (retired record) | DRSC12122 | 71963 | 50900
CG3437 | DRSC10366 | 94803 | 76580
CG5597 | DRSC04517 | 76450 | 68647
Pngl | DRSC04914 | 50563 | 50673
trp | DRSC17088 | 54350 | 43330
bai | DRSC14388 | 73540 | 60210
CG13325 | DRSC06362 | 51890 | 55873
Ccp84Ag | DRSC12592 | 55837 | 56097
P5cr | DRSC16782 | 44990 | 38730
Mst57Dc | DRSC16745 | 58560 | 52180
l(2)k05819 | DRSC00826 | 1.16e5 | 68400
CG6788 | DRSC20007 | 3.37e5 | 3.06e5
GluRIID | DRSC16723 | 61880 | 65650
Rs1 | DRSC05945 | 55173 | 42447
fkh | DRSC16949 | 67450 | 44860
CG17974 | DRSC04299 | 53080 | 58960
CG7634 | DRSC11843 | 70393 | 63280
Ccp84Ac | DRSC12588 | 54987 | 60997
CG9667 | DRSC16535 | 76077 | 66053
RpL31 | DRSC06716 | 23367 | 31777
Mst98Cb | DRSC16750 | 81560 | 54920
CG7049 | DRSC08587 | 51463 | 61173

Entries above whose target name starts with S or s:
gene | DRSC id | raw ATP luminescence, replicate 1 | raw ATP luminescence, replicate 2
Spn85F | DRSC14545 | 1.79e5 | 1.72e5
shrb | DRSC07061 | 30330 | 33423
Sb | DRSC16851 | 82150 | 65920
Smyd3 | DRSC17744 | 63720 | 45770
SdhB | DRSC05018 | 63173 | 51660
schuy | DRSC10284 | 71877 | 61417
